Measured values: PMC12356973
No constants are given. Whether binding was seen depends on the method and setting. In cells and extracts the contact can be indirect. A yes stands for co-enrichment or nearness to the bait. Other partners may have been found.

Protein sequences, listed by entry. Tags and fused reporters are not part of them. Residues count along the entry.
UniProt Q9H1K1, residues 35-167: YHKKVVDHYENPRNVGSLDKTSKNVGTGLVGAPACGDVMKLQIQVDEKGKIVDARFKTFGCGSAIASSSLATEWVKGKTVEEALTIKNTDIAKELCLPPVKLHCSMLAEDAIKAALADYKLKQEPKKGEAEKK

Target: SARS-CoV-2 nsp14, Strep II-tagged (SARS-CoV-2) (UniProt P0DTD1)
Experiment: affinity purification with mass spectrometry

## ISCU (iron-sulfur cluster assembly scaffold) (from UniProt Q9H1K1 35-167)
  binding: binds

## PCBP1 (from UniProt Q15365 1-356)
  binding: binds

B1: BOLA2 (protein, UniProt Q9H3K6 1-86)
chain: MELSAEYLREKLQRDLEAEHVEVEDTTLNRCSCSFRVLVVSAKFEGKPLLQRHRLVNACLAEELPHIHAFEQKTLTPDQWARERQK
  binding: binds
